# According to PubChem BioAssay AID1347075 (National Center for Advancing Translational Sciences (NCATS), 2019):
# “And” between values parts separate entries of the source, which are not always exact repeats. Equal entries are not always repeated. Hit rate of the full screen: of about 400,000 compounds, about 5,500 (1.4%) were called active. Inconclusive means that the source gave no clear call. Such entries were picked first, then a sample of the others. Calls follow the shape of the dose curve; as a rule, active = well fitted cell-killing curve with a large enough effect; inconclusive = small, poorly fitted or top-dose-only effect, or effect the other way; inactive = flat fitted curve, though single readings scatter. Potencies of inconclusive entries are doubtful fits and often do not repeat.
# Experiment: qHTS assay for MDR1-selective chemotherapeutics: Primary screen using the parental adenocarcinoma cell KB-3-1; also: nearly all actives have a fitted effect of over 60% in size
# Details: KB-3-1 viability, CellTiter-Glo ATP luminescence, 72 h; activity change, negative = cytotoxic: at 46.1 µM (top of the series)
# Procedure, shortened: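 Luminescent ATP read-out (CellTiter-Glo) measures survival of drug-naive KB-3-1 cells after 72 h compound exposure at 37 °C. Titration series was screened from lowest to highest concentration, with DMSO vehicle plates as background controls.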
# % is scaled to controls: 0 for no effect and ±100 for the full control effect; potency is read from the fitted curve at half-maximal effect.
SMILES,Potency,"activity change, negative = cytotoxic"
O=C(O)c1ccccc1C(=O)Nc1ccc(Oc2ccc3ccccc3c2)cc1,"inconclusive: 6.51 µM [rising, full curve, poor fit]",–
Cc1ccc(C)c(NC(=S)NC(NC(=O)/C=C/c2ccccc2)C(Cl)(Cl)Cl)c1 (stereo unspecified),"inconclusive: 29.1 µM [cytotoxic, single point]",–
BrC(/C=N/Nc1nc(N2CCOCC2)nc(N2CCOCC2)n1)=C/c1ccccc1,"inconclusive: 18.4 µM [cytotoxic, partial curve, poor fit]",–
Cc1ccc(N=C2NC(=O)/C(=C\c3cccs3)S2)cc1C,inactive,–
CC1CCN(S(=O)(=O)c2nnc(NC(=O)c3cccc(Cl)c3)s2)CC1,"inconclusive: 4.61 µM [cytotoxic, partial curve, poor fit] and inconclusive: 20.6 µM [cytotoxic, single point]",–
CC(=O)c1cccc(S(=O)(=O)Nc2ccc3nc(C)sc3c2)c1,"inconclusive: 13 µM [cytotoxic, partial curve]",–
COc1ccc(S(=O)(=O)N(C)C[C@H]2Oc3ccc(NC(=O)Nc4ccc5c(c4)OCO5)cc3CC(=O)N([C@@H](C)CO)C[C@@H]2C)cc1,inactive,–
CCCCN(CCCNC(=O)c1ccc2c(c1)NC(=O)CN2C)c1ccccc1,"inconclusive: 23.1 µM [cytotoxic, single point]",–
CCOc1cc2[nH]c(=S)n(CC3CCCO3)c(=O)c2cc1OCC (stereo unspecified),"inconclusive: 23.1 µM [rising, partial curve, poor fit]",–
COc1ccc([C@@H]2CC=C(C(=O)O)[C@H](c3ccc(C(C)(C)C)cc3)N2S(=O)(=O)c2ccc(C)cc2)cc1OC,inactive,–
Cc1ccc(Cc2c(-c3ccc(Br)cc3)nc3ccc(Br)cn23)cc1,"inconclusive: 20.6 µM [cytotoxic, single point]",–
CCN(CC)C(=O)c1nc[nH]c1C(=O)N1CCC(C)CC1,inactive,–
C[C@@]12C(=O)Nc3cc(F)c(F)cc3C(=O)N1[C@H]1c3ccccc3OC[C@@H]1[C@@H]2c1ccccc1,"inconclusive: 29.1 µM [cytotoxic, single point]",–
O=C(COC(=O)c1ccco1)NCc1ccc2c(c1)OCO2,"inconclusive: 29.1 µM [rising, single point]",–
CN1CCN(S(=O)(=O)c2ccc3ccccc3c2)CC1,inactive,–
C=CC[C@@H](CC(=O)N[C@@H](CO)Cc1ccccc1)C(=O)N[C@H](COC(=O)[C@H](CC=C)CC(=O)OC(C)(C)C)Cc1c[nH]c2ccccc12,"inconclusive: 29.1 µM [cytotoxic, single point]",–
Cc1nn(-c2ccccc2)c2nc(Cl)c(C(=O)O)cc12,inactive,–
Cc1ccc(NS(=O)(=O)c2ccc3oc(=O)ccc3c2)cc1Cl,inactive,–
COc1cc(NCCCCC(C)N)c2nccc(C)c2c1 (stereo unspecified),active: 5.17 µM,–
COc1cccc(-c2sc3ccccc3c2-c2ccc(OCCN3CCCCC3)cc2)c1,"inconclusive: 29.1 µM [cytotoxic, single point]",–
COc1ccc2oc(-c3ccncc3)cc(=O)c2c1,"inconclusive: 25.9 µM [cytotoxic, single point]",–

# Whole records, quoted from the list. Values in the order: Potency | activity change, negative = cytotoxic
# CCCCN(CCCNC(=O)c1ccc2c(c1)NC(=O)CN2C)c1ccccc1 in the list: inconclusive: 23.1 µM [cytotoxic, single point] | –
# COc1ccc(S(=O)(=O)N(C)C[C@H]2Oc3ccc(NC(=O)Nc4ccc5c(c4)OCO5)cc3CC(=O)N([C@@H](C)CO)C[C@@H]2C)cc1 in the list: inactive | –
# COc1cc(NCCCCC(C)N)c2nccc(C)c2c1 (stereo unspecified) in the list: active: 5.17 µM | –

# The results go on.

SMILES,Potency,"activity change, negative = cytotoxic"
CCOC(=O)c1sc2nc(CC(=O)OC)nc(NCCN3CCOCC3)c2c1C,"inconclusive: 25.9 µM [rising, single point]",–
CN(C)Cc1ccc(F)cc1Sc1cc(Cl)ccc1Cl,"inconclusive: 7.31 µM [rising, partial curve, poor fit]",–
CN(C)CCCN(C(=O)c1ccc(S(=O)(=O)N2CCCCCC2)cc1)c1nc2ccc(Br)cc2s1,"inconclusive: 29.1 µM [cytotoxic, single point]",–
Cc1cc(C)cc(Oc2nc3c(C)cccn3c(=O)c2/C=C(\C#N)c2nc3ccccc3s2)c1,"inconclusive: 29.1 µM [rising, single point]",–
COc1ccccc1CNc1nc(Nc2ccccc2OC)c2sccc2n1,inactive,–
CCc1ccc(C(=O)c2cn(Cc3ccc(F)cc3)c3cc(OC)c(OC)cc3c2=O)cc1,"inconclusive: 29.1 µM [cytotoxic, partial curve, poor fit]",–
COc1ccccc1Cc1nc2ccccc2nc1SCC(=O)N1CCN(c2ccccc2)CC1,inactive,–
Cc1sc2ncnc(SCC(=O)NNC(=O)COc3cccc4ccccc34)c2c1C,"inconclusive: 18.4 µM [cytotoxic, partial curve]",–
O=C(NCCCNC(=O)c1c(Cl)cccc1Cl)c1c(Cl)cccc1Cl,–,inconclusive: -11.9%
CC(=O)C[C@@H]1SC[C@H](c2ccccc2)N1S(=O)(=O)c1ccc(C)cc1,"inconclusive: 23.1 µM [cytotoxic, single point]",–
CCOC(=O)c1cnc(SCc2nc(N)nc(Nc3ccc(F)cc3)n2)nc1N,"inconclusive: 16.4 µM [cytotoxic, partial curve, poor fit]",–
Nc1cccc2c1C(=O)N(C(=O)c1ccco1)C2=O,"inconclusive: 32.6 µM [rising, single point]",–
O=C(Nc1sc2c(c1C(=O)O)CCCC2)c1ccc(Cl)cc1,"inconclusive: 25.9 µM [cytotoxic, partial curve, poor fit]",–
CC(=O)Oc1ccc(N(c2ccccc2)S(=O)(=O)c2ccc(C)cc2)cc1,"inconclusive: 29.1 µM [cytotoxic, single point]",–
CCN(CC)S(=O)(=O)c1ccc(NC(=O)c2c(-c3ccccc3)noc2C)cc1,"inconclusive: 29.1 µM [cytotoxic, single point]",–
O=C(Nc1ccc(F)cc1)Nc1cc(OCC(F)(F)F)cc(OCC(F)(F)F)c1,active: 6.51 µM,–
O=C(COc1ccc(-c2nnco2)cc1)Nc1cc([N+](=O)[O-])ccc1F,inactive,–
Cc1cc2nc(-c3ccc(NC(=O)c4cc5ccccc5o4)cc3)oc2cc1C,"inconclusive: 29.1 µM [cytotoxic, single point]",–
CN1/C(=C/C(=O)COC(=O)C2COc3ccccc3O2)C(C)(C)c2ccccc21 (stereo unspecified),inactive,–
CC(C)C[C@H](CO)N(Cc1ccccc1)S(=O)(=O)N(Cc1ccccc1)[C@@H](CO)CC(C)C,"inconclusive: 23.1 µM [cytotoxic, single point] and inconclusive: 29.1 µM [cytotoxic, single point]",–
